These results are taken from article PMC7303132.

Assay [1] concerns the target T1, Proline-rich protein PRR19 (mouse (endogenous in testis)) (UniProt B2RW88).
T1 sequence: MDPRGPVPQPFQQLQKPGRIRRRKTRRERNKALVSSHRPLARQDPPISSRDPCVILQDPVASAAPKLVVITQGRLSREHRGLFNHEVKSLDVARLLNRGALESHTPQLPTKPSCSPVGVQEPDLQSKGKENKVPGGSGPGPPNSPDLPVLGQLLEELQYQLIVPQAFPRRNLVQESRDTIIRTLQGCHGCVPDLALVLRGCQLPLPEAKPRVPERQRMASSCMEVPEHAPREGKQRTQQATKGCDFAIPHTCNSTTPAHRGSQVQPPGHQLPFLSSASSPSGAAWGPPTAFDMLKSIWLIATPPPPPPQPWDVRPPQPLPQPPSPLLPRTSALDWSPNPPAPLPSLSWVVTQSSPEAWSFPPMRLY
Briefly: co-IP; mouse testis extracts (50 mM Tris-HCl pH 7.5, 150 mM NaCl, 0.5% Triton X-100, diluted two times); guinea pig anti-PRR19, anti-CNTD1 or IgG crosslinked to Dynabeads Protein A, overnight at 4 °C; immunoblot.

Assay [2] concerns the target T2, PRR19 (yeast two-hybrid fusion) (mouse) (UniProt B2RW88).
T2 sequence: T1 sequence
Briefly: two-hybrid; pairwise, Y2HGold yeast strain, Gal4-BD and Gal4-AD vectors; growth 2-3 days on (-Leu, -Trp, -His, -Ade) plates.

No constants are given. Whether binding was seen depends on the method and setting. For some assays here: Binding seen in cells or lysates may run through a third protein. For some assays here: Tags and fused reporters may be left off the sequences shown.

B1: HEI10 ubiquitin ligase (protein, UniProt D3Z3K2 1-276)
chain: MSLCEDMLLCNYRKCRIKLSGYAWVTACSHIFCDQHGSGEFSRSPAICPACNSTLSGKLDIVRTELSPSEEYKAMVLAGLRPEVVLDISSRALAFWTYQVHQERLYQEYNFSKAENHLKQMEKMYMQQIQSKNIELTSMKGEVISMKKVLEEYKKKFSDISEKLMERNRQYQKLQGLYDSLRLRNITIASQEGSLEPGMIPQSGVFGFPPGNNSKFSLDHIPVGNQGGGDEDVQFRPFFVCSPTAPEPINNFFSFASPSHEAEQQVCSRAFKAKRI
For B1, in assay [1], the binding entry is recorded as “no binding”.

B2: HEI10 (yeast two-hybrid fusion) (protein, UniProt D3Z3K2 1-276)
chain: B1 chain
Regarding B2, the binding entry in assay [2] is recorded as “no binding”.
